Results from the M2OR odorant receptor database.
Numbering of substitutions follows the chain as printed. The entries are a selection whose mix differs from that of the whole data set. Calls are pooled over several reports, among them a noisy single-well screen. This is one part of the list.

Chains of the proteins cited; added tags and fusions are not shown. A line that says so, or that is headed by a name, gives the form on record, which may keep a tag or linker.
OR8B3, as listed by the source: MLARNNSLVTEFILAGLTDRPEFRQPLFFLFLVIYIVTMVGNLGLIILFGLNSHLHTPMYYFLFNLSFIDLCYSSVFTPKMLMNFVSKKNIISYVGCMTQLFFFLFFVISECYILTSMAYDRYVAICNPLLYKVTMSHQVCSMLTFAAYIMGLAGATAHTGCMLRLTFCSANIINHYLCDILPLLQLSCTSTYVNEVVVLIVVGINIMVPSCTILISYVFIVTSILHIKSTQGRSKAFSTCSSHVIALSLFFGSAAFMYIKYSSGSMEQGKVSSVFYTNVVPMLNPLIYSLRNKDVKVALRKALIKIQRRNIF
OR8B4, as listed by the source: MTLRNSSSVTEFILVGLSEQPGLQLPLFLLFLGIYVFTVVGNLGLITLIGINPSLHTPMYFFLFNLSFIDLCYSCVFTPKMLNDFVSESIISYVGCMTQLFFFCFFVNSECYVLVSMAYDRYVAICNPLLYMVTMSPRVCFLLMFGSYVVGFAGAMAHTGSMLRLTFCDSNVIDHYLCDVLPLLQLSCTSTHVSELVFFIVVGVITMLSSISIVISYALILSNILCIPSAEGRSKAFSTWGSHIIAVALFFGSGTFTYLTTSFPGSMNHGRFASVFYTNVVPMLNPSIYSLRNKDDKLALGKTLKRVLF

Legend:
Settings in all cases: stereoisomer not certain
OR8A1 = test system: T1, OR8A1
T1 sequence (whole entry): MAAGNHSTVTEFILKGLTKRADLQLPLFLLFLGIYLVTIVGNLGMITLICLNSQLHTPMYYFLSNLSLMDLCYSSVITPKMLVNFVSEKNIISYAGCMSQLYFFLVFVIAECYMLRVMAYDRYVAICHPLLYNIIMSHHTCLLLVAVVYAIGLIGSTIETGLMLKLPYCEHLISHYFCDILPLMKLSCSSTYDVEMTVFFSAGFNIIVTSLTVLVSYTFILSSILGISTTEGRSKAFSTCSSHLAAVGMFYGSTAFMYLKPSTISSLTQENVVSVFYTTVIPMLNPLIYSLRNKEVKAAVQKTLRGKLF
How it was run: (§1)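 Whether a receptor–molecule pair is responsive (active) rests on the original authors' judgment that its measured signal was statistically different from baseline. Pairs without that judgment are non-responsive (inactive). Sources used varied assay methods, commonly transient luciferase assays in mammalian cell lines.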

OR8B12 (Homo sapiens) = target: T2, OR8B12 (Homo sapiens) (UniProt Q8NGG6)
T2 sequence (whole entry): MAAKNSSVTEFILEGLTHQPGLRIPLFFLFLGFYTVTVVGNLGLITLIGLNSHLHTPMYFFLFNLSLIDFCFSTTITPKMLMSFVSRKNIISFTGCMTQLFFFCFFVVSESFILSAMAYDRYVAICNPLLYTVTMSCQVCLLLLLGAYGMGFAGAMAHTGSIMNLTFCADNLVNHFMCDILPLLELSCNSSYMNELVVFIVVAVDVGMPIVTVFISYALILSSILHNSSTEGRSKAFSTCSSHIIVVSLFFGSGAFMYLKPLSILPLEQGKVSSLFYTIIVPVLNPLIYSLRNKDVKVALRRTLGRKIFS
How it was run: as §1

OR8B2 (Homo sapiens) = target: T3, OR8B2 (Homo sapiens) (UniProt Q96RD0)
T3 sequence (whole entry): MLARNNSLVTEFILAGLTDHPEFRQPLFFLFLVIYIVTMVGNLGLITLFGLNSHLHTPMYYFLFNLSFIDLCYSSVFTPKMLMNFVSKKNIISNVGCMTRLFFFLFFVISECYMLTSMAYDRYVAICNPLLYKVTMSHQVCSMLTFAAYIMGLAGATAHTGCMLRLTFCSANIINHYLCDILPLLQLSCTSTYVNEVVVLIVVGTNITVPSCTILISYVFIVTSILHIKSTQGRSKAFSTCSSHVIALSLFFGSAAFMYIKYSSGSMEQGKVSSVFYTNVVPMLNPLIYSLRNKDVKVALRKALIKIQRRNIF
How it was run: as §1

OR8B3 = test system: T4, OR8B3
T4 sequence (whole entry): T3 sequence (whole entry) with H20R, T47I, N94Y, R100Q, M114I, T205I, T208M
How it was run: as §1

OR8B4 [1] = test system: T5, OR8B4
T5 sequence (whole entry): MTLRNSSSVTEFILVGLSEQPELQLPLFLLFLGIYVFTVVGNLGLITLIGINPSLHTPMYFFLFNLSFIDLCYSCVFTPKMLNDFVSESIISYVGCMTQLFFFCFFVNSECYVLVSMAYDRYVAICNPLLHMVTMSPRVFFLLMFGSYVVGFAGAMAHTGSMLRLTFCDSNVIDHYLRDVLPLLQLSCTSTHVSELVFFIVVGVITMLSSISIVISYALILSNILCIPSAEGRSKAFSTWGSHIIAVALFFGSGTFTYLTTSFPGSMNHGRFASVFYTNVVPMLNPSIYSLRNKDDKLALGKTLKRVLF
How it was run: as §1

OR8B4 [2] = test system: T6, OR8B4; remark: listed apart in the source
T6 sequence (whole entry): T5 sequence (whole entry) with E22G, H131Y, F140C, R178C
How it was run: as §1

OR8B8 (Homo sapiens) = target: T7, OR8B8 (Homo sapiens) (UniProt Q15620)
T7 sequence (whole entry): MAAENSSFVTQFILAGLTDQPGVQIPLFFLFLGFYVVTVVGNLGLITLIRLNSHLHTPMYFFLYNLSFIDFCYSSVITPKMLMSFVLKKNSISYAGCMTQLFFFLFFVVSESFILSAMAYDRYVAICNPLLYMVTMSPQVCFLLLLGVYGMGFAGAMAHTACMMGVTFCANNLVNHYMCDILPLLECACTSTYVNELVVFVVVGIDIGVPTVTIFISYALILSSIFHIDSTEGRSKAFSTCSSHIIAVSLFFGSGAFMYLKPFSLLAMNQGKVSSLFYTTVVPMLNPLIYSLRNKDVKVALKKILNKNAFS
How it was run: as §1

OR8B8 = test system: T8, OR8B8
T8 sequence (whole entry): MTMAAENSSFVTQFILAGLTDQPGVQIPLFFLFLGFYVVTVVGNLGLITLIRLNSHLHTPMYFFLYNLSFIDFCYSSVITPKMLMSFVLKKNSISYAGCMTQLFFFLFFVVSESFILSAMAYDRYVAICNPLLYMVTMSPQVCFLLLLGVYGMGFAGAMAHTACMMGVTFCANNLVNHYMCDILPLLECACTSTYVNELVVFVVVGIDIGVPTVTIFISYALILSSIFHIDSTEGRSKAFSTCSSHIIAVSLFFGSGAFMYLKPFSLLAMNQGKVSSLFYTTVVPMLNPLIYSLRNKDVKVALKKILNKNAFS
How it was run: as §1

OR8D1 (Homo sapiens) = target: T9, OR8D1 (Homo sapiens) (UniProt Q8WZ84)
T9 sequence (whole entry): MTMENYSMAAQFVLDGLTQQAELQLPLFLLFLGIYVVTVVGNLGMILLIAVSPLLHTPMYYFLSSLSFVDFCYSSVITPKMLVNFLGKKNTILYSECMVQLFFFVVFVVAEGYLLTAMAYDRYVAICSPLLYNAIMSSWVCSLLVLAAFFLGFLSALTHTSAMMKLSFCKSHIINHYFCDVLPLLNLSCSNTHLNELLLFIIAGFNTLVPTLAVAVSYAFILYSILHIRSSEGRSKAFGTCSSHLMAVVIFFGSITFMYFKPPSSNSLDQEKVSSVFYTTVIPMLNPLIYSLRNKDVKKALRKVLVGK
How it was run: as §1

OR8D2 (Homo sapiens) = target: T10, OR8D2 (Homo sapiens) (UniProt Q9GZM6)
T10 sequence (whole entry): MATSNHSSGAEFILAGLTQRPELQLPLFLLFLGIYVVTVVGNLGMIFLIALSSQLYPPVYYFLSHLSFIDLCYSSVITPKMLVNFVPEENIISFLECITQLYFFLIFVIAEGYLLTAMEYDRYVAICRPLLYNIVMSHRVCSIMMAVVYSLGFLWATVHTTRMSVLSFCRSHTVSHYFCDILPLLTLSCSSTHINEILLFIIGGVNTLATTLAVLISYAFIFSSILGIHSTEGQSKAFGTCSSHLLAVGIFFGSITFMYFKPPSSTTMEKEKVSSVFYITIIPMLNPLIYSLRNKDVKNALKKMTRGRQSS
How it was run: as §1

OR8D4 = test system: T11, OR8D4
T11 sequence (whole entry): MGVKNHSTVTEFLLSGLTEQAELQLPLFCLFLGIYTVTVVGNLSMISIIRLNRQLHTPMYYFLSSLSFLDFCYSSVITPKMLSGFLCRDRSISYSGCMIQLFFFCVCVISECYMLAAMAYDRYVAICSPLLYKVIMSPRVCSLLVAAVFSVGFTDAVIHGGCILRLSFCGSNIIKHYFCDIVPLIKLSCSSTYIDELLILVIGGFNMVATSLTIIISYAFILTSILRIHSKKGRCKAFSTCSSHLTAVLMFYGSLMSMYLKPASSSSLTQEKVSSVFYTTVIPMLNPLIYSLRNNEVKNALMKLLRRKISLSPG
How it was run: as §1

OR8G1 (Homo sapiens) = target: T12, OR8G1 (Homo sapiens) (UniProt Q15617)
T12 sequence (whole entry): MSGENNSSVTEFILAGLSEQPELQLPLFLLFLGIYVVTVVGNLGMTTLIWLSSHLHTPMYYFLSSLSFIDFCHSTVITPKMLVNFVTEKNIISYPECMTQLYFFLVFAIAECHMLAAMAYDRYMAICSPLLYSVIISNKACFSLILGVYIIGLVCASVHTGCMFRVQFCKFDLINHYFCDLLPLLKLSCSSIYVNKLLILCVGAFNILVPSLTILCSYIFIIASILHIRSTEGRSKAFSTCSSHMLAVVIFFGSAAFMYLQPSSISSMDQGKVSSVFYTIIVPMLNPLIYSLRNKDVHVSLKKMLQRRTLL
How it was run: as §1

OR8G5 (Homo sapiens) = target: T13, OR8G5 (Homo sapiens) (UniProt Q8NG78)
T13 sequence (whole entry): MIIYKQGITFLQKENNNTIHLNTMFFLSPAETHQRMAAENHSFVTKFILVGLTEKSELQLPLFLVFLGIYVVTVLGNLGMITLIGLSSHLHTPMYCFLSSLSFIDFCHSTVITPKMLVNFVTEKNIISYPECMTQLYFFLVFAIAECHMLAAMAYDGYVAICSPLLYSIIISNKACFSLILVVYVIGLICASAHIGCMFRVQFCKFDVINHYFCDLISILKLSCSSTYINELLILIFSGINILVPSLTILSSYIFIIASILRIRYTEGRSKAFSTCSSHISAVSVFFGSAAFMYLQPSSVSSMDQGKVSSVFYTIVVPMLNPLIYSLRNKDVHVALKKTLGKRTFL
How it was run: as §1

OR8G5 = test system: T14, OR8G5
T14 sequence (whole entry): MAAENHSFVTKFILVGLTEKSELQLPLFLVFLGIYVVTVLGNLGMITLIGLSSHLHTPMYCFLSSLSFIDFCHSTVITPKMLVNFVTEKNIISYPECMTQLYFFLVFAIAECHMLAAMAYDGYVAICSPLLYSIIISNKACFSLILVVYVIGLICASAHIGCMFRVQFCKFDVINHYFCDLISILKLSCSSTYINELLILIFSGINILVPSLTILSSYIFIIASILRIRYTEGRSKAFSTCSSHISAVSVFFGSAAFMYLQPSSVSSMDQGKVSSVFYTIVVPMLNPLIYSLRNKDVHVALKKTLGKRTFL
How it was run: as §1

OR8H1 (Homo sapiens) = target: T15, OR8H1 (Homo sapiens) (UniProt Q8NGG4)
T15 sequence (whole entry): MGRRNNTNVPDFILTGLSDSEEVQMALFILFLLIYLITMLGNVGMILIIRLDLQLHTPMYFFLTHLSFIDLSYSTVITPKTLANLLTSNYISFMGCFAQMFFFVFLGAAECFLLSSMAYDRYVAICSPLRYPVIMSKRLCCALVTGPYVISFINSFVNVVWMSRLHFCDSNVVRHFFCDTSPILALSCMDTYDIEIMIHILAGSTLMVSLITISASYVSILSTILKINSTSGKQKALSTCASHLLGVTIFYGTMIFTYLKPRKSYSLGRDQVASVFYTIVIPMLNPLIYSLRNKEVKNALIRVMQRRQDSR
How it was run: as §1

OR8H2 = test system: T16, OR8H2
T16 sequence (whole entry): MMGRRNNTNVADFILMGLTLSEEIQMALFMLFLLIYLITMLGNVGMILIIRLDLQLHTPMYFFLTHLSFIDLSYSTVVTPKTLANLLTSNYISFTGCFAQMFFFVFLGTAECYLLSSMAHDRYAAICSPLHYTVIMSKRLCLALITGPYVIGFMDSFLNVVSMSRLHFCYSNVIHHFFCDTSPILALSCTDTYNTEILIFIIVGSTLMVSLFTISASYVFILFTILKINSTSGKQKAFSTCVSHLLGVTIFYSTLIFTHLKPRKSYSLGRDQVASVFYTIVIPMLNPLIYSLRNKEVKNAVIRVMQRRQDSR
How it was run: as §1

OR8A1 (Homo sapiens) = OR8A1 (Homo sapiens) (UniProt Q8NGG7)
How it was run: as §1

OR8B4 (Homo sapiens) = OR8B4 (Homo sapiens) (UniProt Q96RC9)
How it was run: as §1

OR8D4 (Homo sapiens) = OR8D4 (Homo sapiens) (UniProt Q8NGM9)
How it was run: as §1

OR8H2 (Homo sapiens) = OR8H2 (Homo sapiens) (UniProt Q8N162)
How it was run: as §1

Measured: odorant receptor agonist call;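 further: active if original authors judged signal statistically different from baseline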

CC(C)C=O
not listed: OR8A1 (Homo sapiens) | OR8B4 (Homo sapiens) | OR8D4 (Homo sapiens) | OR8H2 (Homo sapiens)
inactive: all other assays above

CCCCCOC(C)=O
active: OR8D4
not listed: OR8A1 (Homo sapiens) | OR8B4 (Homo sapiens) | OR8D4 (Homo sapiens) | OR8H2 (Homo sapiens)
inactive: all other assays above

CCCCCCCCCCC=O
active: OR8B2 (Homo sapiens)
not listed: OR8A1 (Homo sapiens) | OR8B4 (Homo sapiens) | OR8D4 (Homo sapiens) | OR8H2 (Homo sapiens)
inactive: all other assays above

CC(=O)OCC=C(C)CCC=C(C)C
active: OR8B2 (Homo sapiens) | OR8B3
not listed: OR8A1 (Homo sapiens) | OR8B4 (Homo sapiens) | OR8D4 (Homo sapiens) | OR8H2 (Homo sapiens)
inactive: all other assays above

O=C1CCCCCCCCCCCCCCO1
not listed: OR8A1 (Homo sapiens) | OR8B4 (Homo sapiens) | OR8D4 (Homo sapiens) | OR8H2 (Homo sapiens)
inactive: all other assays above

CCCCCCOC(=O)CCC
active: OR8H2
not listed: OR8A1 (Homo sapiens) | OR8B4 (Homo sapiens) | OR8D4 (Homo sapiens) | OR8H2 (Homo sapiens)
inactive: all other assays above

CCCCCCCC=CC=O
not listed: OR8A1 (Homo sapiens) | OR8B4 (Homo sapiens) | OR8D4 (Homo sapiens) | OR8H2 (Homo sapiens)
inactive: all other assays above

CC(=O)C(C)=O
not listed: OR8A1 (Homo sapiens) | OR8B4 (Homo sapiens) | OR8D4 (Homo sapiens) | OR8H2 (Homo sapiens)
inactive: all other assays above

CC(=O)OC(C)(C)C1CC=C(C)CC1 (centres undefined)
not listed: OR8A1 (Homo sapiens) | OR8B4 (Homo sapiens) | OR8D4 (Homo sapiens) | OR8H2 (Homo sapiens)
inactive: all other assays above

C=CCc1ccc(OC)c(OC)c1
active: OR8B2 (Homo sapiens)
not listed: OR8A1 (Homo sapiens) | OR8B4 (Homo sapiens) | OR8D4 (Homo sapiens) | OR8H2 (Homo sapiens)
inactive: all other assays above

CCC=CCCO
not listed: OR8A1 (Homo sapiens) | OR8B4 (Homo sapiens) | OR8D4 (Homo sapiens) | OR8H2 (Homo sapiens)
inactive: all other assays above

CC12C=CCC1C1CCC3CC(=O)CCC3(C)C1CC2 (centres undefined)
active: OR8B4 [2] | OR8B8 | OR8H2
not listed: OR8D1 (Homo sapiens) | OR8D2 (Homo sapiens)
inactive: all other assays above
